Data as given in PubChem BioAssay AID1259405 (NCATS, 2018).
Assay: 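Mouse-designed siRNAs used to find CHO productivity engineering targets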 (primary screen). System: Chinese hamster CHO-K1 ovary cells with stable secreted eGFP expression. Reagent: single siRNA against mouse genes, 0.8 pmol siRNA per well (2 µl of 400 nM stock). Time to read-out: 3 days. Detection: 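Per-well intracellular GFP measured by laser scanning cytometry, plus viability from ATP luminescence, each relative to plate median of non-targeting control wells, in %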. Scale: GFP, % of control: higher = more GFP per well, higher productivity; viability (ATP), % of control: higher = more viable cells (more ATP). Hit rule: 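a knock-down is called active if GFP reaches 120% or more of non-targeting control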.
The whole screen tested about 50,000 reagents; shown is a random part of them. Of all reagents, about 4,000 (8%) got an active call. 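Mouse siRNA library applied to hamster cells; one well for each siRNA.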 Unmarked entries are inactive. The numbers tell different reagents against one gene apart.

For Fcgbpl1 #1, the entry reads GFP, % of control 60; viability (ATP), % of control 92.9. Fcgbpl1 #2 gave GFP, % of control 88.6; viability (ATP), % of control 85.2. Knock-down of Fcgbpl1 #3 came out at: GFP, % of control 73.3; viability (ATP), % of control 84.2. For Ppp1r3b #1, the entry reads GFP, % of control 99.5; viability (ATP), % of control 104. After knock-down of Ppp1r3b #2 the results were GFP, % of control 93.5; viability (ATP), % of control 89.3. Depletion of Ppp1r3b #3 resulted in: GFP, % of control 54.5; viability (ATP), % of control 65.1.

With knock-down of Zfp428 #1 the results were GFP, % of control 73.5; viability (ATP), % of control 75.1. Against Zfp428 #2, the values are GFP, % of control 108; viability (ATP), % of control 63.3. Zfp428 #3 scored GFP, % of control 50.7; viability (ATP), % of control 74.2. Against Card19 #1 the deposit lists GFP, % of control 103; viability (ATP), % of control 97. For Card19 #2 the deposit lists GFP, % of control 86.2; viability (ATP), % of control 92.2. After knock-down of Card19 #3, the record shows GFP, % of control 35.9; viability (ATP), % of control 33.1.

Pak1ip1 #1 gave GFP, % of control 83.8; viability (ATP), % of control 85.6. After knock-down of Pak1ip1 #2, the screen gave GFP, % of control 62.3; viability (ATP), % of control 51.5. After knock-down of Pak1ip1 #3, the screen gave GFP, % of control 109; viability (ATP), % of control 97.2. Silencing of Kctd12 #1 came out at: GFP, % of control 76.7; viability (ATP), % of control 69.2. For Kctd12 #2, the values are GFP, % of control 80.8; viability (ATP), % of control 81.1. Tbc1d10b #1 gave GFP, % of control 104; viability (ATP), % of control 118.

With knock-down of Tbc1d10b #2 the results were GFP, % of control 60.7; viability (ATP), % of control 49. Against Tbc1d10b #3, the values are GFP, % of control 60.9; viability (ATP), % of control 54.1. Rmdn1 #1 gave GFP, % of control 69.2; viability (ATP), % of control 62.4. Knock-down of Rmdn1 #2 came out at: GFP, % of control 7.91; viability (ATP), % of control 15.6. Against Rmdn1 #3, the entry reads GFP, % of control 68.8; viability (ATP), % of control 94.3. Depletion of Dcaf12l2 #1 gave: GFP, % of control 117; viability (ATP), % of control 67.9.

Against Dcaf12l2 #2, the entry reads GFP, % of control 57.5; viability (ATP), % of control 72.5. Dcaf12l2 #3 showed GFP, % of control 88.1; viability (ATP), % of control 98.2.

A run of entries taken from the entries so far, for reference:
Card19 #1 | GFP, % of control = 103; viability (ATP), % of control = 97
Card19 #2 | GFP, % of control = 86.2; viability (ATP), % of control = 92.2
Card19 #3 | GFP, % of control = 35.9; viability (ATP), % of control = 33.1

Next entries follow.
Or1l4 #1 showed GFP, % of control 34.9; viability (ATP), % of control 40.9. Against Or1l4 #2, the entry reads GFP, % of control 71; viability (ATP), % of control 75.8. With knock-down of Or1l4 #3, the record shows GFP, % of control 46.6; viability (ATP), % of control 64.9. Against Galnt5 #1, the entry reads GFP, % of control 55; viability (ATP), % of control 107. Galnt5 #2 scored GFP, % of control 74.6; viability (ATP), % of control 74.7. Against Galnt5 #3, the values are GFP, % of control 70.4; viability (ATP), % of control 108.

Against Gmcl1 #1, the entry reads GFP, % of control 55.7; viability (ATP), % of control 68.3. After knock-down of Gmcl1 #2, the screen gave GFP, % of control 95.8; viability (ATP), % of control 89.2. Gmcl1 #3 scored GFP, % of control 45.9; viability (ATP), % of control 63.4. Against Fkrp #1 the deposit lists GFP, % of control 64.8; viability (ATP), % of control 85.9. After knock-down of Fkrp #2, the screen gave GFP, % of control 117; viability (ATP), % of control 70.1. Depletion of Fkrp #3 gave: GFP, % of control 97.4; viability (ATP), % of control 80.

With knock-down of Or52n5 #1, the record shows GFP, % of control 131 (active); viability (ATP), % of control 92.7. Against Or52n5 #2 the deposit lists GFP, % of control 118; viability (ATP), % of control 80.8. Knock-down of Or52n5 #3 resulted in: GFP, % of control 64.3; viability (ATP), % of control 93.2.
